In article PMC5919438:
No constants are given. Whether binding was seen depends on the method and setting. Binding seen in cells or lysates may run through a third protein. Some results given as binding are weak or reduced against the parent protein; the word gives no strength.

Amino acid sequences for entries named in this document (tags omitted).
UniProt Q98146: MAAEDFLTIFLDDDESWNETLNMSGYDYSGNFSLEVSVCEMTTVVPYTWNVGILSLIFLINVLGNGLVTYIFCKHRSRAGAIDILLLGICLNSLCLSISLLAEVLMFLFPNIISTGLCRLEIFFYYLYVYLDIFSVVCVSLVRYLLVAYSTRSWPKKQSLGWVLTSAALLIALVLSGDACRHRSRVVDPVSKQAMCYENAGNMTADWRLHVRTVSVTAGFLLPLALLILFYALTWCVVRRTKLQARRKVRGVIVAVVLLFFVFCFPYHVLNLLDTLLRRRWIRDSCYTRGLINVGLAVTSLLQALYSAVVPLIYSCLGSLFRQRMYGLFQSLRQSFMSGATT

T1: Cell adhesion molecule 1 (CADM1), endogenous (human (endogenous in HeLa and PEL cell lines)) (UniProt Q9BY67)
T1 sequence: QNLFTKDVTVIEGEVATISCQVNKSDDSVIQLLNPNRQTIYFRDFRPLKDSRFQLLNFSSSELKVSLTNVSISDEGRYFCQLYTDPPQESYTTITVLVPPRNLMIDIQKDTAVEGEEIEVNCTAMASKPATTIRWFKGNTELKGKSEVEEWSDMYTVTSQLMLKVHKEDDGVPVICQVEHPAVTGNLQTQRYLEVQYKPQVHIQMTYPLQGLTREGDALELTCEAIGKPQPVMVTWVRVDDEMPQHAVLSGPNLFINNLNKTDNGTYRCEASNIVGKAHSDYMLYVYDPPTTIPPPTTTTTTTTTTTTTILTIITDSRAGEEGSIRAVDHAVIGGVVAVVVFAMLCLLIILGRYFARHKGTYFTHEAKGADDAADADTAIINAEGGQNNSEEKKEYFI

B1: Cell adhesion molecule 1 (CADM1), endogenous (protein, UniProt Q9BY67 45-442)
chain: T1 sequence

Key:
[1] = biological target: T1, Cell adhesion molecule 1 (CADM1), endogenous (human (endogenous in HeLa and PEL cell lines)); assay: co-IP; endogenous proteins, lysates of PEL cell lines (BC-1, BC-3, BCBL-1); immunoprecipitated with anti-CADM1 or control IgG; blotted with anti-vFLIP or anti-vGPCR
[2] = biological target: Flag-vGPCR (KSHV viral G-protein-coupled receptor, open reading frame 74) (KSHV/HHV8 (cDNA of BC-3 cells)) (UniProt Q98146); assay: co-IP; HeLa cells transfected with Flag-vFLIP or Flag-vGPCR, 48 h; lysed in RIPA buffer; immunoprecipitated with anti-Flag or control IgG; blotted with anti-CADM1 (endogenous) and anti-Flag

Molecule | binding [1] | binding [2]
vGPCR (KSHV open reading frame 74), endogenous in PEL cells (from UniProt Q98146 1-342) (receptor) | binds | –
B1 | – | binds
